The target of assay [1] is N‐terminal MYC‐tagged CD44s (human) (UniProt P16070). Nature of the assay: proximity ligation; PLA on MYC and Flag tags; N-MYC-CD44s overexpressing 19TT cells treated for 2 h with control EVs or EVs carrying Flag-TSG6; fixed, permeabilised, Duolink reagents, super-resolution imaging.
For assay [2], the target named is C‐terminal Flag‐tagged CD44s (human) (UniProt P16070). Nature of the assay: proximity ligation; PLA between receptors in 19TT cells, treated for 2 h with vehicle, TGF-β, con-EVs or TGF-β-EVs; fixed, permeabilised, Duolink reagents, super-resolution imaging.

The chains behind the UniProt entries cited, without tags or fusion partners. Where a name states a change or a piece, a line headed by the entry shows the natural chain unless it says otherwise. A line that says so, or that is headed by a name, gives the form on record, which may keep a tag or linker. Residues count along the entry.
C‐terminal Flag‐tagged CD44s (P16070, form named): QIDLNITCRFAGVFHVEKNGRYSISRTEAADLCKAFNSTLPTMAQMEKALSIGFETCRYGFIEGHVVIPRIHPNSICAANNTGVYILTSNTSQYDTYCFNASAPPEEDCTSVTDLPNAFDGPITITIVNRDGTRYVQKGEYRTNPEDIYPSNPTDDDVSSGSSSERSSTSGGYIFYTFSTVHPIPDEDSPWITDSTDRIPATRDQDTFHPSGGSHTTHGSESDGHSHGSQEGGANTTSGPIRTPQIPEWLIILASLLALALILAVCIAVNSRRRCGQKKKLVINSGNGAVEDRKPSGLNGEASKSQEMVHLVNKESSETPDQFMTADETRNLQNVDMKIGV
UniProt P98066, residues 18-277: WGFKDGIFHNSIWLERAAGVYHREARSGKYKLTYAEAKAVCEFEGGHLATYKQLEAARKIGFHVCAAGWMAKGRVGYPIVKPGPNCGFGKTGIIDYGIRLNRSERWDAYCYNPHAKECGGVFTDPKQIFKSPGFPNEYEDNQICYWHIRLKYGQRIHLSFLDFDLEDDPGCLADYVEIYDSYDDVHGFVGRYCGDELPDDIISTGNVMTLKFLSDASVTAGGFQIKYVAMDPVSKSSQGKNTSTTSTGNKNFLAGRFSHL

Results are given in words; binding and its absence hold for the method and conditions named. Binding seen in cells or lysates may run through a third protein. Some binding calls cover weakened binding; strength is not graded here.

As for “Flag‐TSG6 on EVs from Flag‐TSG6‐overexpressing CAFs (from UniProt P98066 18-277)”, the binding entry in assay [1] was “binds”.

B1: TGF‐β type I receptor (TGFBR1), endogenous (receptor, UniProt P36897 34-503)
chain: LQCFCHLCTKDNFTCVTDGLCFVSVTETTDKVIHNSMCIAEIDLIPRDRPFVCAPSSKTGSVTTTYCCNQDHCNKIELPTTVKSSPGLGPVELAAVIAGPVCFVCISLMLMVYICHNRTVIHHRVPNEEDPSLDRPFISEGTTLKDLIYDMTTSGSGSGLPLLVQRTIARTIVLQESIGKGRFGEVWRGKWRGEEVAVKIFSSREERSWFREAEIYQTVMLRHENILGFIAADNKDNGTWTQLWLVSDYHEHGSLFDYLNRYTVTVEGMIKLALSTASGLAHLHMEIVGTQGKPAIAHRDLKSKNILVKKNGTCCIADLGLAVRHDSATDTIDIAPNHRVGTKRYMAPEVLDDSINMKHFESFKRADIYAMGLVFWEIARRCSIGGIHEDYQLPYYDLVPSDPSVEEMRKVVCEQKLRPNIPNRWQSCEALRVMAKIMRECWYANGAARLTALRIKKTLSQLSQQEGIKM
With B1, the binding result in assay [2] is reported as “binds”.

Values taken from PMC12884746.
